Assay results published in paper PMC5567221, “The open architecture of HD-PTP phosphatase provides new insights into the mechanism of regulation of ESCRT function” (Scientific Reports, 2017).
These are yes or no findings as the source states them, for the method shown. Each block holds one binder with its values, some of them ahead of it.

Tests used:
[1] = molecular target: HD-PTP coiled-coil domain (residues 362-704) (UniProt Q9H3S7); assay: AUC; sedimentation velocity on protein fractions from MALS; 50,000 rpm, 20 °C, 280 nm; Sedfit; both purified
[2] = molecular target: HD-PTP coiled-coil domain (residues 362-704) (UniProt Q9H3S7); assay: SEC-MALS; Superdex-200 10/300 GL; 20 mM Tris-Cl pH 8.0, 100 mM NaCl, 1 mM TCEP (HD-PTPCC and HD-PTP Bro1-CC) or 20 mM HEPES pH 7.4, 250 mM NaCl, 2 mM EDTA (HD-PTP Bro1-CC-PRR); both purified
[3] = molecular target: HD-PTP Bro1-CC (residues 1-714) (UniProt Q9H3S7); assay: AUC; sedimentation velocity on protein fractions from MALS; 50,000 rpm, 20 °C, 280 nm; Sedfit; both purified
[4] = molecular target: HD-PTP Bro1-CC (residues 1-714) (UniProt Q9H3S7); assay: SEC-MALS; Superdex-200 10/300 GL; 20 mM Tris-Cl pH 8.0, 100 mM NaCl, 1 mM TCEP (HD-PTPCC and HD-PTP Bro1-CC) or 20 mM HEPES pH 7.4, 250 mM NaCl, 2 mM EDTA (HD-PTP Bro1-CC-PRR); both purified
[5] = molecular target: HD-PTP Bro1-CC-PRR (residues 1-738) (UniProt Q9H3S7); assay: AUC; sedimentation velocity on protein fractions from MALS; 50,000 rpm, 20 °C, 280 nm; Sedfit; both purified
[6] = molecular target: HD-PTP Bro1-CC-PRR (residues 1-738) (UniProt Q9H3S7); assay: SEC-MALS; Superdex-200 10/300 GL; 20 mM Tris-Cl pH 8.0, 100 mM NaCl, 1 mM TCEP (HD-PTPCC and HD-PTP Bro1-CC) or 20 mM HEPES pH 7.4, 250 mM NaCl, 2 mM EDTA (HD-PTP Bro1-CC-PRR); both purified

binding [1]: no binding | binding [2]: no binding
B1: HD-PTP coiled-coil domain (residues 362-704) (domain or fragment, UniProt Q9H3S7 362-704)
chain: PMAAHEASSLYSEEKAKLLREMMAKIEDKNEVLDQFMDSMQLDPETVDNLDAYSHIPPQLMEKCAALSVRPDTVRNLVQSMQVLSGVFTDVEASLKDIRDLLEEDELLEQKFQEAVGQAGAISITSKAELAEVRREWAKYMEVHEKASFTNSELHRAMNLHVGNLRLLSGPLDQVRAALPTPALSPEDKAVLQNLKRILAKVQEMRDQRVSLEQQLRELIQKDDITASLVTTDHSEMKKLFEEQLKKYDQLKVYLEQNLAAQDRVLCALTEANVQYAAVRRVLSDLDQKWNSTLQTLVASYEAYEDLMKKSQEGRDFYADLESKVAALLERTQSTCQAREAAR

binding [3]: no binding | binding [4]: no binding
B2: HD-PTP Bro1-CC (residues 1-714) (domain or fragment, UniProt Q9H3S7 1-714)
chain: MEAVPRMPMIWLDLKEAGDFHFQPAVKKFVLKNYGENPEAYNEELKKLELLRQNAVRVPRDFEGCSVLRKYLGQLHYLQSRVPMGSGQEAAVPVTWTEIFSGKSVAHEDIKYEQACILYNLGALHSMLGAMDKRVSEEGMKVSCTHFQCAAGAFAYLREHFPQAYSVDMSRQILTLNVNLMLGQAQECLLEKSMLDNRKSFLVARISAQVVDYYKEACRALENPDTASLLGRIQKDWKKLVQMKIYYFAAVAHLHMGKQAEEQQKFGERVAYFQSALDKLNEAIKLAKGQPDTVQDALRFTMDVIGGKYNSAKKDNDFIYHEAVPALDTLQPVKGAPLVKPLPVNPTDPAVTGPDIFAKLVPMAAHEASSLYSEEKAKLLREMMAKIEDKNEVLDQFMDSMQLDPETVDNLDAYSHIPPQLMEKCAALSVRPDTVRNLVQSMQVLSGVFTDVEASLKDIRDLLEEDELLEQKFQEAVGQAGAISITSKAELAEVRREWAKYMEVHEKASFTNSELHRAMNLHVGNLRLLSGPLDQVRAALPTPALSPEDKAVLQNLKRILAKVQEMRDQRVSLEQQLRELIQKDDITASLVTTDHSEMKKLFEEQLKKYDQLKVYLEQNLAAQDRVLCALTEANVQYAAVRRVLSDLDQKWNSTLQTLVASYEAYEDLMKKSQEGRDFYADLESKVAALLERTQSTCQAREAARQQLLDRELKK

binding [5]: no binding | binding [6]: no binding
B3: HD-PTP Bro1-CC-PRR (residues 1-738) (domain or fragment, UniProt Q9H3S7 1-738)
chain: MEAVPRMPMIWLDLKEAGDFHFQPAVKKFVLKNYGENPEAYNEELKKLELLRQNAVRVPRDFEGCSVLRKYLGQLHYLQSRVPMGSGQEAAVPVTWTEIFSGKSVAHEDIKYEQACILYNLGALHSMLGAMDKRVSEEGMKVSCTHFQCAAGAFAYLREHFPQAYSVDMSRQILTLNVNLMLGQAQECLLEKSMLDNRKSFLVARISAQVVDYYKEACRALENPDTASLLGRIQKDWKKLVQMKIYYFAAVAHLHMGKQAEEQQKFGERVAYFQSALDKLNEAIKLAKGQPDTVQDALRFTMDVIGGKYNSAKKDNDFIYHEAVPALDTLQPVKGAPLVKPLPVNPTDPAVTGPDIFAKLVPMAAHEASSLYSEEKAKLLREMMAKIEDKNEVLDQFMDSMQLDPETVDNLDAYSHIPPQLMEKCAALSVRPDTVRNLVQSMQVLSGVFTDVEASLKDIRDLLEEDELLEQKFQEAVGQAGAISITSKAELAEVRREWAKYMEVHEKASFTNSELHRAMNLHVGNLRLLSGPLDQVRAALPTPALSPEDKAVLQNLKRILAKVQEMRDQRVSLEQQLRELIQKDDITASLVTTDHSEMKKLFEEQLKKYDQLKVYLEQNLAAQDRVLCALTEANVQYAAVRRVLSDLDQKWNSTLQTLVASYEAYEDLMKKSQEGRDFYADLESKVAALLERTQSTCQAREAARQQLLDRELKKKPPPRPTAPKPLLPRREESEAVEA
